PMC4384708 (EJNMMI Research, 2015)
Bridge positions count the residues as written; N and C are the ends. Peptide text beside a SMILES is read from it. * marks the point of attachment. X1 = N[C@@H](CSC1CC(=O)N(CC2CCC(C(=O)*)CC2)C1=O)C(=O)NCCCC[C@@H](C(=O)O)N(CCN(CC(=O)O)CC(=O)O)CCN(CC(=O)O)CC(=O)O

Test system: angiogenic active endothelium
Experiment: Matrigel plug model, gamma counting of explanted Matrigels
Assay type: in vivo, Swiss mice
Conditions: corrected for ID and weight

Question: `CC(=O)N[C@H]1CSSC[C@@H](C(=O)NCC(=O)NCC(=O)N[C@@H](CCCCNC(=O)C2CCC(CN3C(=O)CC(SC[C@H](N)C(=O)NCCCC[C@@H](C(=O)O)N(CCN(CC(=O)O)CC(=O)O)CCN(CC(=O)O)CC(=O)O)C3=O)CC2)C(N)=O)NC(=O)[C@H](CCCNC(=N)N)NC(=O)CNC(=O)[C@H](CC(N)=O)NC1=O` (some centres unmarked) [^111In-DTPA-cNGR, metal not drawn] (Ac-CNGRCGGK(X1)-NH2; disulfide 1-5) was tested. Which “uptake ratio hFGF2 supplemented vs. non-hFGF2 supplemented Matrigel” value did it give?
Answer: 1.8

Question: What about the “uptake ratio hFGF2 supplemented Matrigel vs. muscle” value (hind limb muscle as reference) of the same molecule?
Answer: 3.1
